The target of experiment [1] is T1, FLAG-TRPC6 107-931 (human) (UniProt Q9Y210).
T1 sequence: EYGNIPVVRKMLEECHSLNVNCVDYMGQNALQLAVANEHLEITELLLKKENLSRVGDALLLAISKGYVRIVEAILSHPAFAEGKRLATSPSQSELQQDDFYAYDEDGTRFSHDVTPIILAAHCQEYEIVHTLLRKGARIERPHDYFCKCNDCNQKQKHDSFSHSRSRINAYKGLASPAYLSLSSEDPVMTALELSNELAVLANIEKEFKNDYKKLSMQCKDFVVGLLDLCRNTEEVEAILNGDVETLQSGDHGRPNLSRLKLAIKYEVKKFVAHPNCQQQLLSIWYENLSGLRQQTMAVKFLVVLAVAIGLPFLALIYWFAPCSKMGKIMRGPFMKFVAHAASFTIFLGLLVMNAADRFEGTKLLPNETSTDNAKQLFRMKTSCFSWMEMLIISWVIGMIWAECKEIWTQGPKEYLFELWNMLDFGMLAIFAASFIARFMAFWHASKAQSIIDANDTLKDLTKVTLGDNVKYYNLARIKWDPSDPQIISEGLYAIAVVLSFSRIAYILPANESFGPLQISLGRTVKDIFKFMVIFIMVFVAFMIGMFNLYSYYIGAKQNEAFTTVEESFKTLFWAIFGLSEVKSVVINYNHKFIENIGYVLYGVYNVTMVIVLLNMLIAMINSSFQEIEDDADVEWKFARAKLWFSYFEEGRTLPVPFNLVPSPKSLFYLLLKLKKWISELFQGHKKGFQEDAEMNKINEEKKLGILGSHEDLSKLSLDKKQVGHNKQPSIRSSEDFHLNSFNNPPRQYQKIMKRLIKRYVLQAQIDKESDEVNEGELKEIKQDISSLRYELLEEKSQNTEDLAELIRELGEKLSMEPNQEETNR
Briefly: co-IP; HEK 293T cells co-expressing full-length HA-TRPC6 and FLAG-tagged TRPC6 constructs; FLAG immunoprecipitation, blot for HA-TRPC6.

The target of experiment [2] is T2, TRPC6 amino-terminal cytoplasmic domain (amino acids 1-406) fused to the Gal4 DNA-binding domain (human) (UniProt Q9Y210).
T2 sequence: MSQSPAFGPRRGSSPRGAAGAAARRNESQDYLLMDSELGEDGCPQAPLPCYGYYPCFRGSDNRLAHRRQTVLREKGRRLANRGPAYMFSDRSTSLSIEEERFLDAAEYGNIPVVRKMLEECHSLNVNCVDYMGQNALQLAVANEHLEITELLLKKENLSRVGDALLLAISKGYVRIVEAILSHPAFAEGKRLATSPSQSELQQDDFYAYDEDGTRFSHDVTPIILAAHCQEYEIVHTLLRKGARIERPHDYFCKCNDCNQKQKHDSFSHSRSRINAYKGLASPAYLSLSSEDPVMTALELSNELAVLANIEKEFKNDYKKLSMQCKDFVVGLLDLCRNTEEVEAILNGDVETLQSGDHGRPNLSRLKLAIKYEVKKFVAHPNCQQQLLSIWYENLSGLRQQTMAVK
Kind of experiment: two-hybrid; directed test read by beta-galactosidase activity (data not shown).

Experiment [3] concerns the target T3, TRPC6 amino acids 1-107 fused to the Gal4 DNA-binding domain (human) (UniProt Q9Y210).
T3 sequence: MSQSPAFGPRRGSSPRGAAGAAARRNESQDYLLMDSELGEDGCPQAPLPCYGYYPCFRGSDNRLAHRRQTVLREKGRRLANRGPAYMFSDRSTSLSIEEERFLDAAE
Kind of experiment: two-hybrid; directed test: pGADT7-SNF8 in Y187 mated with AH109 carrying pGBKT7-TRPC6 constructs; growth on high stringency media SD-ade, his, leu, trp.

The target in experiment [4] is T2, TRPC6 amino-terminal cytoplasmic domain (amino acids 1-406) fused to the Gal4 DNA-binding domain (human). The experiment is described as above.
The target in experiment [5] is T4, FLAG-tagged TRPC6 (wild type) under a tetracycline inducible promoter (human) (UniProt Q9Y210).
T4 sequence: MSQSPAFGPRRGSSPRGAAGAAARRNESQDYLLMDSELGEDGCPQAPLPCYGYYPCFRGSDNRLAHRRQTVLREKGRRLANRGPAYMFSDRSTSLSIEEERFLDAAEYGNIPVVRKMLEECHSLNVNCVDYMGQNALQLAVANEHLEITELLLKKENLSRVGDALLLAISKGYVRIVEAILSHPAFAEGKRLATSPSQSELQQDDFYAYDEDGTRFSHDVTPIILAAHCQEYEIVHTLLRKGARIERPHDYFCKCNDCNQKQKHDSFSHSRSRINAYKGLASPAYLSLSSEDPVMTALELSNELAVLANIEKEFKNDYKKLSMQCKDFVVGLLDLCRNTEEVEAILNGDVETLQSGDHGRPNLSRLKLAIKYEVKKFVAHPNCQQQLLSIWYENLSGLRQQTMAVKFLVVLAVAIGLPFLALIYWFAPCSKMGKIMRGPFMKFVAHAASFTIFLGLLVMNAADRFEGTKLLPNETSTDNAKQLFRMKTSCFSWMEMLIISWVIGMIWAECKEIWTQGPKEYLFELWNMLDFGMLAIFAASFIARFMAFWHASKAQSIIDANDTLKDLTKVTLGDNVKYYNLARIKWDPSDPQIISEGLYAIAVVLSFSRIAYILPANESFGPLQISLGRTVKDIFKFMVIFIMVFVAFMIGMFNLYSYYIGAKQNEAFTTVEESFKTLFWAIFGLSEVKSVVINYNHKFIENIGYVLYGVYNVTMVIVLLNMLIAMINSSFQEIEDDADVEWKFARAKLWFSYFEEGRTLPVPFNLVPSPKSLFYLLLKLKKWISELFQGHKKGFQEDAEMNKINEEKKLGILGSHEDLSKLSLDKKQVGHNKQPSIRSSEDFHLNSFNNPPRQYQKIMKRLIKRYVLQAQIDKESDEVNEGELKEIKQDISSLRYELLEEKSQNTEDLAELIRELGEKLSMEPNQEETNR
Kind of experiment: co-IP; M1R cells with tetracycline-induced FLAG-TRPC6, transfected with HA-SNF8; with or without 100 uM carbachol for 5 minutes before lysis; modified RIPA lysis buffer; FLAG M2 agarose, 4 C, 2-3 hours; blot with anti-HA.

These are yes or no findings as the source states them, for the method shown. For some assays here: In cells and extracts the contact can be indirect. Some binding calls cover weakened binding; strength is not graded here. Tags and fused reporters may be left off the sequences shown.

B1: Full-length HA-tagged TRPC6 (protein, UniProt Q9Y210 1-931)
chain: T4 sequence
Regarding B1, the binding entry in experiment [1] is reported as “binds”.

B2: Full-length SNF8 fused to the Gal4 activation domain (pGADT7-SNF8) (protein, UniProt Q96H20 1-258)
chain: MHRRGVGAGAIAKKKLAEAKYKERGTVLAEDQLAQMSKQLDMFKTNLEEFASKHKQEIRKNPEFRVQFQDMCATIGVDPLASGKGFWSEMLGVGDFYYELGVQIIEVCLALKHRNGGLITLEELHQQVLKGRGKFAQDVSQDDLIRAIKKLKALGTGFGIIPVGGTYLIQSVPAELNMDHTVVLQLAEKNGYVTVSEIKASLKWETERARQVLEHLLKEGLAWLDLQAPGEAHYWLPALFTDLYSQEITAEEAREALP
As for B2, the binding entry in experiment [2], in experiment [3] and in experiment [4] was “binds” in each case.

B3: HA-tagged SNF8 (protein, UniProt Q96H20 1-258)
chain: B2 chain
Take B3: the binding result in experiment [5] is recorded as “binds”.

The record behind these values is publication PMC3520717.
